Laboratory results taken from PubChem BioAssay AID540275 (National Center for Advancing Translational Sciences (NCATS), 2011).
Screen size: about 320,000 compounds; about 620 (0.19%) were called active. Inconclusive means that the source gave no clear call. Such entries were picked first, then a sample of the others. Cut-off read from the data, not from the text of the source: active = activation above about 80%; inconclusive = between about 30% and that limit; inactive = weaker than that.

Amino acid sequences for entries named in this document (tags omitted).
UniProt Q8NER1, whole entry, looked up: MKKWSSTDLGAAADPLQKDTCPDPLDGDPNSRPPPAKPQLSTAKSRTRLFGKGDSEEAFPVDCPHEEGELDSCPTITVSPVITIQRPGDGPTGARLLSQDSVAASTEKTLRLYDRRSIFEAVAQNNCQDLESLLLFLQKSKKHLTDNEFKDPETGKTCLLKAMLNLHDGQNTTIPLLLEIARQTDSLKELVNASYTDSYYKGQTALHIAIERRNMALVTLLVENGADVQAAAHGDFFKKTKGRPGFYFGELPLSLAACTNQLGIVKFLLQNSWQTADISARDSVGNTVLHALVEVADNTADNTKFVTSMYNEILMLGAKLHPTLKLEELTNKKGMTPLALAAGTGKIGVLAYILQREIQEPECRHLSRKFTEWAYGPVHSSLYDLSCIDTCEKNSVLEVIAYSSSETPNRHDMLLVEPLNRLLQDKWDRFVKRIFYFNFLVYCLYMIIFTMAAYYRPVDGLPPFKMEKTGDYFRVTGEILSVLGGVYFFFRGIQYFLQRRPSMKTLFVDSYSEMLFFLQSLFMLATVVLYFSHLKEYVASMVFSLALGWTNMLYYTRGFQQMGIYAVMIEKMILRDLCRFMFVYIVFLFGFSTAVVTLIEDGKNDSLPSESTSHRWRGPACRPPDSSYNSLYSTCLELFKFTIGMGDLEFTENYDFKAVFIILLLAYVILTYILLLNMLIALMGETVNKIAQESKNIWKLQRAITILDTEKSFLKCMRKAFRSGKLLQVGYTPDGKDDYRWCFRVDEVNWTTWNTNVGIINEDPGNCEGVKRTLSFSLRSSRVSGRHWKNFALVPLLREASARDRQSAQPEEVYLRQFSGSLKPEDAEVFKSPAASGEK

The compounds below were run against Transient receptor potential cation channel subfamily V member 1 (Homo sapiens) (UniProt Q8NER1) (assay: HTS Assay for Compounds that Act as Agonists of the Vanilloid Receptor 1). Settings: TRPV1-expressing cells, Fluo-8 calcium influx, agonist mode; at 8.33 µM, active compounds read high.
Outline: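 Cells expressing TRPV1 were dye-loaded with Fluo-8 and read kinetically: 10 s baseline, 3 min after compound (agonist portion), then 2 min after EC20 capsaicin (allosteric enhancer portion). Calcium-bound dye fluorescence at 480/520 nm.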
Note: 0% is about no effect.

SMILES	activation
CCCN=C(C)c1c(-c2ccccc2)[nH]n(-c2nc3ccccc3s2)c1=O	inconclusive: 50.2%
O=C(NCC1CC1)Nc1ccc(Cl)cc1	inconclusive: 49.6%
CC1(C)Cc2c(cnn2-c2cccc(F)c2)C(NC(=O)c2csnn2)C1 (stereo not drawn)	inconclusive: 30.2%
COc1ccc(C(=O)N2CCCc3ccccc32)cc1	inactive: 1.81%
O=C(O)c1ccccc1Nc1ccc([N+](=O)[O-])c2nonc12	inactive: -2.55%
Cc1nn(-c2ccc(N3CCOCC3)nn2)c(C)c1CCC(=O)NCc1ccc(F)cc1	inactive: 2.37%
Cn1c(=O)[nH]c(=O)c2c1nc(N1CCNCC1)n2Cc1cccc2ccccc12	inactive: -2.03%
CC(C)c1c(C(=O)N/N=C/C2CC=CCC2)nnn1-c1nonc1N (stereo not drawn)	inconclusive: 30.4%
CCOC(=O)c1ccc(NC(=O)N2CCN(c3ccccc3OC)CC2)cc1	inconclusive: 41.5%
CCOC(=O)c1c(NC(=O)c2cccs2)sc(CC)c1-c1cccs1	inconclusive: 31.1%
COC(=O)c1ccc(NC(=S)NCC2CC2)cc1	inconclusive: 39.2%
CCOc1ccc(/C=N/OC(C)C(=O)NCc2ccc3c(c2)OCO3)cc1 (stereo not drawn)	inactive: 20.1%
CCC(C)(C)NC(=O)CN(Cc1cccs1)C(=O)C(=O)Nc1ccc2c(c1)OCCO2	inconclusive: 38.6%
COCCCNCCC(CCC(C)C)c1ccc2c(c1)OCO2 (stereo not drawn)	inactive: 14%
CCc1c(C)nc2ncnn2c1NCCc1ccc(Cl)cc1	inconclusive: 32.1%
CCCCOc1ccc(/C=C/C(=O)Nc2ccc(C(N)=O)cc2)cc1	inconclusive: 32.2%
CC(=NCCc1ccccc1)C1=C(O)CSC1=O	inactive: 2.86%
O=C(CSc1nnc(-c2ccc(OC(F)F)cc2)o1)N1CCOCC1	inconclusive: 34.7%
Cc1nn(C)c(C(=O)N/N=C/c2ccc(C(F)(F)F)cc2)c1[N+](=O)[O-]	inconclusive: 49.4%
CCCc1ccc(C(=O)NC(=O)c2ccccc2O)cc1	inactive: 16.6%
COc1ccc(NC(=O)c2cnc(SC)nc2C)c(OC)c1	inactive: -1.66%
O=C(COC(=O)COc1ccccc1)NCCC1=CCCCC1	inactive: 25.6%
CC(C)(C)c1ccc(-n2ncc3c2CCCC3NC(=O)CCCn2cncn2)cc1 (stereo not drawn)	inconclusive: 41.8%
Cc1ccc(C(=O)/C=C/c2cn(CN3CCN(C)CC3)c3ccccc23)cc1	inconclusive: 30.5%

Reformatted as comma-separated lines: part of the list above.
SMILES,activation
CCCN=C(C)c1c(-c2ccccc2)[nH]n(-c2nc3ccccc3s2)c1=O,inconclusive: 50.2%
O=C(CSc1nnc(-c2ccc(OC(F)F)cc2)o1)N1CCOCC1,inconclusive: 34.7%

Remaining list, next part:

SMILES	activation
O=C(Nc1cccnc1)c1sc(Nc2ccccc2)nc1-c1ccccc1	inactive: 16.5%
Cc1ccc2oc3c(c(=O)c2c1)C(c1cccc(O)c1)N(c1ccccn1)C3=O (stereo not drawn)	inactive: -1.62%
O=C(Nc1ccc(Cl)cc1)N1CCN(c2ccccc2)CC1	inconclusive: 63.9%
Cc1cccc(C2C3=C(CCCC3=O)N=C3c4ccccc4C(=O)C32)c1 (stereo not drawn)	inconclusive: 34.8%
COc1ccc(CNC(=S)Nc2ccc(Br)cc2)cc1	inconclusive: 52.2%
CCOc1ccccc1Nc1nc(-c2sc(NC(=O)c3ccc([N+](=O)[O-])cc3)nc2C)cs1	inconclusive: 31%
C=C1CCC(N(O)c2cc(C)on2)C(=C)CCC2C1CC2(C)C (stereo not drawn)	inactive: 13.2%
O=C(CCCC(=O)OCC(=O)c1cccs1)Nc1ccc(Oc2ccccc2)cc1	inactive: 1.55%
CC1Cc2ccccc2N1C(=O)/C=C/c1cccc(F)c1 (stereo not drawn)	inconclusive: 39.4%
CCOc1ccc(C(=O)NCCc2ccc3c(c2)OCCO3)cc1	inactive: -2.31%
CCCCOCCCNC(=O)C1c2ccccc2Oc2ccccc21	inconclusive: 34.9%
Cc1ccc(C2=CC(C)(c3ccc(C)cc3)Nc3nc(C(F)(F)F)nn32)cc1 (stereo not drawn)	inactive: 2.15%
Cc1cccc(NC(=O)NCCCCc2ccccc2)c1	inconclusive: 43.5%
CC(Oc1ccccc1)C(=O)N1CCC2(CC1)CC(=O)c1ccccc1O2 (stereo not drawn)	inconclusive: 47.7%
CC(=O)c1ccc(NC(=O)Nc2ccccc2)cc1	inconclusive: 65.9%
CCC(C)Nc1nc(-c2c[nH]c3ccccc23)cs1 (stereo not drawn)	inactive: 2.45%
O=C(Nc1cccnc1)Nc1ccc(Cl)cc1Cl	inconclusive: 56.1%
ClCc1nnc(-c2cc3c(s2)CCCC3)o1	inconclusive: 35.4%
O=C(Nc1cccc(-n2cnnn2)c1)c1cc2ccccc2o1	inconclusive: 61.3%
FC(F)(F)c1ccc(/C=N/n2c(COc3ccccc3)n[nH]c2=S)cc1	inconclusive: 34.9%
Cc1cccc(CCNS(=O)(=O)c2ccc(S(=O)(=O)N3CCCCC3)cc2)c1	inactive: 13.7%
CSc1cccc(NC(=O)/C=C/c2cccc(Cl)c2)c1	inconclusive: 55.9%
NS(=O)(=O)c1ccc(CCNC(=O)c2ccccc2-c2ccccc2)cc1	inactive: 5.49%
O=C(Nc1ccccc1)N1CCCN(c2ccc(C(F)(F)F)cn2)CC1	inconclusive: 72%

SMILES	activation
Cc1onc(-c2ccccc2Cl)c1C(=O)OCC(=O)Nc1cccc(S(=O)(=O)N(C)C)c1	inactive: 10.3%
Cc1ccccc1C(=O)Nc1nnc(CC(=O)N/N=C/c2ccco2)s1	inactive: -0.598%
NC(N)=Nc1nc(C2COc3ccccc3O2)cs1 (stereo not drawn)	inactive: 2.33%
O=C(NCC1CCCO1)c1cccc(S(=O)(=O)Nc2ccc(F)cc2)c1 (stereo not drawn)	inactive: 0.363%
CCOC(=O)CC(=O)CSc1nc2cc(C)ccc2cc1C	inconclusive: 43.7%
CN(C)S(=O)(=O)c1cccc(NC(=O)c2sccc2-c2ccccc2)c1	inconclusive: 36.8%
O=C(COC(=O)/C=C/c1ccc(OC(F)F)cc1)Nc1ccc(S(=O)(=O)N2CCCC2)cc1	inactive: -0.631%
N#CC1(NC(=O)COC(=O)c2nccnc2N)CCCCC1	inactive: -3.31%
CN1CCN(C(=O)/C=C\c2ccc(Cl)cc2)CC1	inconclusive: 35.7%
COc1ccc(S(=O)(=O)NCc2ccc3c(c2)OCO3)cc1OC	inactive: 3.57%
Cc1cccc(N2C(=O)c3cccc4c(N(C)CCO)ccc(c34)C2=O)c1	inactive: 1.08%
Oc1ccc(Cl)cc1C1=NNC(c2cc(Br)cc3c2OCOC3)C1 (stereo not drawn)	inactive: -2.21%
COc1cc(C2C(C#N)=C(N)Oc3cc(N(C)C)ccc32)cc2c1OCO2 (stereo not drawn)	inconclusive: 30.4%
O=C(Cc1c[nH]c2ccccc12)N1CCN(S(=O)(=O)c2cccc(Cl)c2Cl)CC1	inconclusive: 41.3%
COc1ccc2nc(NC(=O)C3CC(=O)N(c4ccc5c(c4)OCCO5)C3)sc2c1 (stereo not drawn)	inconclusive: 60.3%
Cc1cccc(NC(=O)c2cnc3sccn3c2=O)c1C	inactive: 0.885%
CCCCOc1ccc(C(=O)NCc2ccncc2)cc1	inconclusive: 65.2%
COc1ccc(C2CC2/C(=N/O)c2ccccn2)cc1 (stereo not drawn)	inconclusive: 42.4%
NS(=O)(=O)c1ccc(CNC(=O)CCC2CCCCC2)cc1	inconclusive: 35.4%
COc1ccc2cc(C(C)C(=O)N3CCC(C)CC3)ccc2c1 (stereo not drawn)	inactive: 14.3%
COC(=O)c1ccc(C(=O)OC)c(NC(=O)CN(C)Cc2cccc(Cl)c2Cl)c1	inconclusive: 47.5%
O=c1c2nnn(-c3ccccc3)c2ncn1C/C=C/c1ccccc1	inactive: -1.44%
CCCCOC(=O)/C(=C/C=C/c1ccccc1)NC(=O)c1ccccc1	inconclusive: 42.3%
O=C(CCc1nc(-c2ccccc2)no1)Nc1cccnc1	inconclusive: 71.2%

Molecules listed so far containing fluorine, in the order listed:
SMILES	activation
CC1(C)Cc2c(cnn2-c2cccc(F)c2)C(NC(=O)c2csnn2)C1 (stereo not drawn)	inconclusive: 30.2%
Cc1nn(-c2ccc(N3CCOCC3)nn2)c(C)c1CCC(=O)NCc1ccc(F)cc1	inactive: 2.37%
O=C(CSc1nnc(-c2ccc(OC(F)F)cc2)o1)N1CCOCC1	inconclusive: 34.7%
Cc1nn(C)c(C(=O)N/N=C/c2ccc(C(F)(F)F)cc2)c1[N+](=O)[O-]	inconclusive: 49.4%
CC1Cc2ccccc2N1C(=O)/C=C/c1cccc(F)c1 (stereo not drawn)	inconclusive: 39.4%
Cc1ccc(C2=CC(C)(c3ccc(C)cc3)Nc3nc(C(F)(F)F)nn32)cc1 (stereo not drawn)	inactive: 2.15%
FC(F)(F)c1ccc(/C=N/n2c(COc3ccccc3)n[nH]c2=S)cc1	inconclusive: 34.9%
O=C(Nc1ccccc1)N1CCCN(c2ccc(C(F)(F)F)cn2)CC1	inconclusive: 72%
O=C(NCC1CCCO1)c1cccc(S(=O)(=O)Nc2ccc(F)cc2)c1 (stereo not drawn)	inactive: 0.363%
O=C(COC(=O)/C=C/c1ccc(OC(F)F)cc1)Nc1ccc(S(=O)(=O)N2CCCC2)cc1	inactive: -0.631%

(list continues)

SMILES	activation
Cc1cc(N/C=C\c2nnnn2-c2ccc(F)cc2)no1	inactive: 9.84%
C=CCn1ccc(=NC=C(C#N)C#N)c2ccccc21	inconclusive: 31.8%
Oc1ccc2ccccc2c1/C=N/Nc1nnc(-c2ncc[nH]2)c2ccccc12	inactive: 3.93%
O=C(CSc1ccc(-c2ccncc2)nn1)c1ccccc1	inconclusive: 73.4%
COc1ccccc1OCC(O)CN1CCN(C(=O)c2ccccc2)CC1 (stereo not drawn)	inactive: 1.91%
CSc1ccc(NC(=O)N2CC=C(n3c(=O)[nH]c4ccccc43)CC2)cc1	inconclusive: 69.5%
CCOc1cc(C(=S)N2CCCCC2)ccc1OS(=O)(=O)c1ccc(Cl)cc1	inactive: 0.157%
CCCC[n+]1ccn(-c2nc3ccccc3nc2[N-]S(=O)(=O)c2cccs2)c1	inactive: 12.7%
Cc1ccccc1-n1c(SCC(N)=O)nc2sc(-c3ccccc3)cc2c1=O	inactive: 1.12%
Cc1ccc2nc(-c3ccccc3N)[nH]c2c1	inconclusive: 42.2%
COc1ccc(-c2nn(-c3ccccc3)cc2C(=O)NCC2CCCO2)cc1 (stereo not drawn)	inconclusive: 45.2%
CCOc1ccccc1N1CCN(CC(O)COCc2cccs2)CC1 (stereo not drawn)	inactive: -0.604%
O=C(NC(=O)c1ccc(Cl)cc1)OC1CCCCC1	inconclusive: 52.4%
CC(Oc1cccc(Cl)c1)C(=O)Nc1ccccc1N1CCCC1 (stereo not drawn)	inconclusive: 44.4%
Cc1ccccc1OCCCn1c(CO)nc2ccccc21	inconclusive: 49.5%
COc1ccc(CN(C)C(=O)CNC(=O)c2ccc3ccccc3c2)c(OC)c1	inactive: -2.56%
COCC1CCN(C(=O)c2cc(COc3ccc(-n4cncn4)cc3)on2)C1 (stereo not drawn)	inconclusive: 30.2%
CCS(=O)(=O)N1CCC(C(=O)Oc2ccccc2Br)CC1	inactive: 4.98%
COc1ccc(C(CNC(=O)C(C)(C)Oc2ccc(Cl)cc2)N2CCCCC2)cc1 (stereo not drawn)	inconclusive: 34.4%
CC(C)(C)c1cc(C(=O)NNC(=O)c2ccc(C(F)(F)F)cc2)no1	inconclusive: 41.2%
Cc1cc(C)c(S(=O)(=O)N2CCCC(C(=O)NCc3ccncc3)C2)c(C)c1 (stereo not drawn)	inconclusive: 46%
